Paper PMC8657799
Results are given in words; binding and its absence hold for the method and conditions named. Binding seen in cells or lysates may run through a third protein. Some entries that bind do so weakly or less than the wild type.

Amino acid sequences for entries named in this document (tags omitted). A change or cut given only in a name is not applied to a line headed by its entry.
UniProt Q96D31: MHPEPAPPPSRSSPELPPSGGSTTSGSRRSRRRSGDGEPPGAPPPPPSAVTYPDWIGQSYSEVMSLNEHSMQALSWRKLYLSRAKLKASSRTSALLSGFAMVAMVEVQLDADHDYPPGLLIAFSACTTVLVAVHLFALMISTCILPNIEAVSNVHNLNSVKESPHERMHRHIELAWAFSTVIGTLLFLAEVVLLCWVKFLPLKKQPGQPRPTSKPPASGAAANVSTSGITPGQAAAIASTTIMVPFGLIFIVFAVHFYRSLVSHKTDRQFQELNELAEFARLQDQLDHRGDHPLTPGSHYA

Molecular target: T1, 3xHA-RHBDL2 (wild type, active) (mouse) (UniProt A2AGA4)
T1 sequence: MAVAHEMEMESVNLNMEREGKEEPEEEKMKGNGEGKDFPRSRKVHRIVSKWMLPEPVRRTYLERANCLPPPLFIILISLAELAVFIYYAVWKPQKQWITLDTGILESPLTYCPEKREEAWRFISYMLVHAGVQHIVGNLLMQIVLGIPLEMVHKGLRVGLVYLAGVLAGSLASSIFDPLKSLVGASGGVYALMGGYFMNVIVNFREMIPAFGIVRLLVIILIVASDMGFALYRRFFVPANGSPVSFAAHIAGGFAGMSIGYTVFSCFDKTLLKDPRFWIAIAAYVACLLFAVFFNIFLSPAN
Experiment: co-IP; HA antibody-coupled beads, 2-3 h at 4°C, lysates of HEK293 cells co-expressing 3xHA-RHBDL2 (WT or SA) and V5-hOrai1 forms for 24 h; 1% Triton X-100, 150 mM NaCl, 50 mM Tris-HCl pH 7.4; blotted for V5 and HA; in Figure 7D cells were kept for 5 min before lysis in 2 mM Ca2+ or in Ca2+-free solution with 1 mM EGTA

**Q.** How did the binding turn out when “V5-hOrai1 G98C (from UniProt Q96D31 1-301)” was run?
**A.** The binding was “binds weakly”.

**Q.** Which binding does the source give for “V5-hOrai1 G98S (from UniProt Q96D31 1-301)” here?
**A.** The binding was “binds”.

**Q.** For “V5-hOrai1 H134S (from UniProt Q96D31 1-301)”, which binding is on record?
**A.** The binding was “binds”.

**Q.** Which binding does the source give for “V5-hOrai1 H134W (from UniProt Q96D31 1-301)” here?
**A.** The binding was “binds weakly”.

**Q.** “V5-hOrai1 R91W (from UniProt Q96D31 1-301)” was tested. Which binding did it give?
**A.** Its binding is “binds weakly”.
